# The supplement of paper PMC8326762, “A Small Molecule Inhibitor of Pex3–Pex19 Interaction Disrupts Glycosome Biogenesis and Causes Lethality in Trypanosoma brucei” (Frontiers in Cell and Developmental Biology, 2021)
# Structures can show the parent of a compound that is named as a salt. This is one part of the list. Single values of this set are uncertain.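 Yeast growth was read as optical density at 600 nm. The two-hybrid strains grew without histidine, so growth needed the Pex3–Pex19 binding; a compound counted as trypanosome-selective if it cut growth of the trypanosome-pair strain by more than 65% and the human-pair strain by less than 65%.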
# Experiments:
# [1] = test system: Saccharomyces cerevisiae HF7c pdr5Δ; assay: general growth inhibition of yeast HF7c pdr5Δ in -Leu -Trp medium, relative to DMSO; higher = stronger general growth inhibition; details: 100 µM; 24 h
# [2] = test system: human PEX3-PEX19 interaction (yeast two-hybrid); assay: growth inhibition of yeast two-hybrid strain reporting HsPex3-HsPex19 interaction, relative to DMSO; higher = stronger inhibition of human Pex3-Pex19 interaction / growth; details: 100 µM; 24 h; 3-aminotriazole 10 mM
# [3] = test system: T. brucei Pex3-Pex19 interaction (yeast two-hybrid); assay: growth inhibition of yeast two-hybrid strain reporting TbPex3-TbPex19 interaction, relative to DMSO; higher = stronger inhibition of T. brucei Pex3-Pex19 interaction / growth; details: 100 µM; 24 h
Structure (SMILES),general growth inhibition [1] [%],growth inhibition [2] [%],growth inhibition [3] [%]
COc1cc2nc(N(C)CCCNC(=O)C3CCCO3)nc(N)c2cc1OC (configuration not stated) [Alfuzosin hydrochloride],35.1,32.5,42.5
Cc1cc2c(cc1Cl)N(C(=O)Nc1ccc(Oc3cccnc3C)nc1)CC2,49.4,50.4,53.5
C[C@]12CCC(=O)C=C1CC[C@@H]1[C@@H]2[C@@H](O)C[C@@]2(C)[C@H]1CC[C@]2(O)C(=O)CO [Hydrocortisone],40.4,35.3,52.7
CN(Cc1cnc2nc(N)nc(N)c2n1)c1ccc(C(=O)N[C@@H](CCC(=O)O)C(=O)O)cc1 [Methotrexate hydrate],53.7,46.6,61.8
Nc1nnc(-c2cccc(Cl)c2Cl)c(N)n1 [Lamotrigine],47.3,46.3,69.7
CCN(CC)C(C)CN1c2ccccc2Sc2ccccc21 (configuration not stated) [Ethopropazine hydrochloride],11.8,13.9,29.4
CCCCCN(C)CCC(O)(P(=O)(O)O)P(=O)(O)O [Ibandronate sodium],42.6,51.5,63.8
CCN(CC)CCCC(C)Nc1c2ccc(Cl)cc2nc2ccc(OC)cc12 (configuration not stated) [Quinacrine dihydrochloride],11.3,0.874,42.7
NC(=O)C1=CN(C2OC(COP(=O)(O)OP(=O)(O)OC[C@H]3O[C@@H](n4cnc5c(N)ncnc54)C(OP(=O)(O)O)[C@H]3O)C(O)C2O)C=CC1 (some centres not stated) [NADPH tetrasodium],9.51,7.23,34.1
O=C(CCSCc1ccco1)NNC(=O)N1Cc2ccccc2Oc2ccc(Cl)cc21,41.8,31.9,53.5
CC(C)(Oc1ccc(C2CC2(Cl)Cl)cc1)C(=O)O (configuration not stated) [Ciprofibrate],28.9,37.4,40.1
Nc1nc(Cl)nc2c1ncn2[C@@H]1O[C@H](COP(=O)(O)OP(=O)(O)OP(=O)(O)O)[C@H](O)C1O (some centres not stated) [2-Chloroadenosine triphosphate tetrasodium],42.3,47.8,60
CC(C)c1cccc(C(C)C)c1N1C(=O)c2ccc(O)cc2C1=O,86.1,81.7,69.6
CCN(CC)CC(=O)Nc1c(C)cccc1C [Lidocaine hydrochloride],40.4,18,71.8
O=C1c2c(O)ccc(O)c2C(=O)c2c(NCCNCCO)ccc(NCCNCCO)c21 [Mitoxantrone],19.6,-18.9,-13.1
c1ccc2c(CC3=NCCN3)cccc2c1 [Naphazoline hydrochloride],48.5,45.7,69.5
COc1ccc(C2(O)OC(=O)C(c3ccc4c(c3)OCO4)=C2Cc2cc(OC)c(OC)c(OC)c2)cc1 (configuration not stated),38.7,22.1,39.7
CC(C)COCC(CN(Cc1ccccc1)c1ccccc1)N1CCCC1 (configuration not stated) [Bepridil hydrochloride],31.3,31,43.2
CC(C)C[C@H](NC(=O)[C@H](O)[C@H](N)Cc1ccccc1)C(=O)O [Epibestatin hydrochloride],42.1,45.9,70.3
NS(=O)(=O)c1nn2cc(-c3ccccc3)nc2s1,38.3,36.9,42.4
CC(C)NCC(O)c1ccc(NS(C)(=O)=O)cc1 (racemic) [(±)-Sotalol hydrochloride],56.6,50.2,59.7
CCCCCCCCCCCCCCCC(=O)OC(CC(=O)O)C[N+](C)(C)C (racemic) [Palmitoyl-DL-Carnitine chloride],82.6,78.2,72.2

Structure (SMILES),general growth inhibition [1] [%],growth inhibition [2] [%],growth inhibition [3] [%]
Cc1ccc(S(=O)(=O)N[C@@H](Cc2ccccc2)C(=O)CCl)cc1 [N-p-Tosyl-L-phenylalanine chloromethyl ketone],89.1,81.2,80.2
CCC(C)N(C)C(=O)c1cc2ccccc2c(-c2ccccc2Cl)n1 (configuration not stated),55,43.1,53.3
CN=c1nc(-c2ccccc2)n(-c2ccccc2)s1,70.1,53.7,74.4
C=Cc1c(C)c2cc3[nH]c(cc4nc(cc5nc(cc1[nH]2)C(C)=C5CCC(=O)O)C(CCC(=O)O)=C4C)c(C)c3C=C [Protoporphyrin IX disodium],1.33,-41.3,-18.4
C[N+](C)(C)CCCCCC[N+](C)(C)C [Hexamethonium bromide],32.6,30.7,50.3
O=C1CCC(c2ccc(-n3ccnc3)cc2)=NN1 [Imazodan],4.94,7.94,37.9
NCCc1ccc(O)c(O)c1 [Dopamine hydrochloride],42.1,49.8,65.7
CCCn1c(=O)c(C)cn2nc(N)nc12,50.5,50,73.8
O=C(O)C1CCNCC1 [Isonipecotic acid],47.5,44.7,66.8
COC(=O)C(N)Cc1ccc(Cl)cc1 (racemic) [DL-p-Chlorophenylalanine methyl ester hydrochloride],16.1,12.7,34.8
CC(C)c1ccc2c(c1)c(SC(C)(C)C)c(CC(C)(C)C(=O)O)n2Cc1ccc(Cl)cc1,27.2,16,23.9
Cl.N[C@@H](CCC(=O)O)C(=O)O [L-Glutamic acid hydrochloride],24.4,35.3,62.4
CNCCCN1c2ccccc2CCc2ccccc21 [Desipramine hydrochloride],41.9,34.5,69.6
CCCCCCCCCC(=O)NC(CN1CCOCC1)[C@H](O)c1ccccc1 (mixture of isomers),17.4,19.5,33.9
Nc1nc2[nH]c(=O)cnc2c(=O)[nH]1 [Isoxanthopterin],30.4,28.9,48.9
Cn1cc(C(=O)OCC2CCN(CCNS(C)(=O)=O)CC2)c2ccccc21,35,35.7,65.1
NC(Cc1cccc(-c2ccccc2CP(=O)(O)O)c1)C(=O)O (stereo not drawn) [Phenylbenzene-omega-phosphono-alpha-amino acid],51.3,31.8,59
CN(C)CCCN1c2ccccc2CCc2ccc(Cl)cc21 [Clomipramine hydrochloride],18,29.1,42.6
CCN1CCCC1CNC(=O)c1cc(S(=O)(=O)CC)c(N)cc1OC (configuration not stated) [Amisulpride],57.4,48.1,62.8
CN1CCc2cccc3c2[C@H]1Cc1ccc(O)c(O)c1-3 [Apomorphine hydrochloride hemihydrate],29,23.9,52.6
CC1=C(CC(=O)O)c2cc(F)ccc2/C1=C\c1ccc([S+](C)[O-])cc1 (configuration not stated) [Sulindac],35.8,36.5,55.8
O=C(Nc1ccc([N+](=O)[O-])cc1Cl)c1cc(Cl)ccc1O [Niclosamide],33.4,20.9,28.4

# Arranged by formula weight (falling): 4 of the compounds above
Structure (SMILES),general growth inhibition [1] [%],growth inhibition [2] [%],growth inhibition [3] [%]
CCCCCCCCCC(=O)NC(CN1CCOCC1)[C@H](O)c1ccccc1 (mixture of isomers),17.4,19.5,33.9
CCN1CCCC1CNC(=O)c1cc(S(=O)(=O)CC)c(N)cc1OC (configuration not stated) [Amisulpride],57.4,48.1,62.8
CC1=C(CC(=O)O)c2cc(F)ccc2/C1=C\c1ccc([S+](C)[O-])cc1 (configuration not stated) [Sulindac],35.8,36.5,55.8
CN=c1nc(-c2ccccc2)n(-c2ccccc2)s1,70.1,53.7,74.4

# The listing continues.

Structure (SMILES),general growth inhibition [1] [%],growth inhibition [2] [%],growth inhibition [3] [%]
O=C(CCCN1CCC(O)(c2ccc(Cl)cc2)CC1)c1ccc(F)cc1 [Haloperidol],28.5,30.2,54.6
O=C(/C=C/c1ccc(O)c(O)c1)OCCc1ccccc1 [Caffeic acid phenethyl ester],89.7,87,83.3
O=C(Nc1ccc2c(c1)CCN(Cc1ncn[nH]1)C2)c1ccccc1-c1ccc(C(F)(F)F)cc1,36.8,34.9,68.1
O=c1c(-c2ccc(O)cc2)coc2cc(O)cc(O)c12 [Genistein],26.1,26.8,27.5
CCCN(CC1CC1)c1nc(C)nc(Nc2c(Cl)cc(Cl)cc2Cl)c1Cl,20.5,22.2,29.4
C[N+](C)(C)CC(=O)O [Betaine hydrochloride],37.3,45.3,57.8
NCC(O)(CS(=O)(=O)O)c1ccc(Cl)cc1 (configuration not stated) [2-Hydroxysaclofen],27.5,27.2,50.5
[N-]=[N+]=Nc1ccc(C(=O)CSC[C@H](NC(=O)CC[C@H](N)C(=O)O)C(=O)NCC(=O)O)cc1 [S-(p-Azidophenacyl)glutathione],60,47.3,59.2
CN(C)C(=O)C(CCN1CCC(O)(c2ccc(Cl)cc2)CC1)(c1ccccc1)c1ccccc1 [Loperamide hydrochloride],31.4,36.3,66.9
"CCCCCCCCCCC/C=C\C(C)(C)/C=C\CCCC(=O)O [7,7-Dimethyl-(5Z,8Z)-eicosadienoic acid]",36.7,35.7,64.1
CC(C)=CCC/C(C)=C/COc1ccc2ccc(=O)oc2c1 [Auraptene],21.9,26.1,51.6
CC[C@@H]1C(=O)OC[C@@H]1Cc1cncn1C [Pilocarpine nitrate],18.2,3.57,38
Cn1cc(C(F)(F)F)nc1-c1ccc(OCC(O)CNCCOc2ccc(O)c(C(N)=O)c2)cc1 (configuration not stated),18.5,27.1,53.4
CCCCCCCC/C=C\CCCCCCCC(=O)NCc1ccc(O)c(OC)c1 [Olvanil],36.5,27,60.9
C[n+]1cc2c3c(ccc2c2ccc4cc5c(cc4c21)OCO5)OCO3 [Sanguinarine chloride],73.4,48.9,60.6
Cn1c(=O)c2[nH]cnc2n(C)c1=O [Aminophylline ethylenediamine],38.6,28.3,60.7
CC1(C)NC(=O)N(c2ccc([N+](=O)[O-])c(C(F)(F)F)c2)C1=O [Nilutamide],4.73,-0.794,31.4
CC(C)NCC(O)COc1cccc2ccccc12 (racemic) [(±)-Propranolol hydrochloride],50.2,46.6,71.3
C#C[C@]1(O)CC[C@H]2[C@@H]3CCC4=Cc5oncc5C[C@]4(C)[C@H]3CC[C@@]21C [Danazol],26,26.9,27.4
c1cnc2cc3c(cc2n1)[C@@H]1CNC[C@H]3C1 [Varenicline tartrate],44.3,43.5,60.8
